Laboratory results taken from the supplement of paper PMC10849652.
The list shows a part of the results.

By UniProt entry, the sequences of proteins in these tests, tags left out. Where a name states a change or a piece, a line headed by the entry shows the natural chain unless it says otherwise.
UniProt Q9NZB2: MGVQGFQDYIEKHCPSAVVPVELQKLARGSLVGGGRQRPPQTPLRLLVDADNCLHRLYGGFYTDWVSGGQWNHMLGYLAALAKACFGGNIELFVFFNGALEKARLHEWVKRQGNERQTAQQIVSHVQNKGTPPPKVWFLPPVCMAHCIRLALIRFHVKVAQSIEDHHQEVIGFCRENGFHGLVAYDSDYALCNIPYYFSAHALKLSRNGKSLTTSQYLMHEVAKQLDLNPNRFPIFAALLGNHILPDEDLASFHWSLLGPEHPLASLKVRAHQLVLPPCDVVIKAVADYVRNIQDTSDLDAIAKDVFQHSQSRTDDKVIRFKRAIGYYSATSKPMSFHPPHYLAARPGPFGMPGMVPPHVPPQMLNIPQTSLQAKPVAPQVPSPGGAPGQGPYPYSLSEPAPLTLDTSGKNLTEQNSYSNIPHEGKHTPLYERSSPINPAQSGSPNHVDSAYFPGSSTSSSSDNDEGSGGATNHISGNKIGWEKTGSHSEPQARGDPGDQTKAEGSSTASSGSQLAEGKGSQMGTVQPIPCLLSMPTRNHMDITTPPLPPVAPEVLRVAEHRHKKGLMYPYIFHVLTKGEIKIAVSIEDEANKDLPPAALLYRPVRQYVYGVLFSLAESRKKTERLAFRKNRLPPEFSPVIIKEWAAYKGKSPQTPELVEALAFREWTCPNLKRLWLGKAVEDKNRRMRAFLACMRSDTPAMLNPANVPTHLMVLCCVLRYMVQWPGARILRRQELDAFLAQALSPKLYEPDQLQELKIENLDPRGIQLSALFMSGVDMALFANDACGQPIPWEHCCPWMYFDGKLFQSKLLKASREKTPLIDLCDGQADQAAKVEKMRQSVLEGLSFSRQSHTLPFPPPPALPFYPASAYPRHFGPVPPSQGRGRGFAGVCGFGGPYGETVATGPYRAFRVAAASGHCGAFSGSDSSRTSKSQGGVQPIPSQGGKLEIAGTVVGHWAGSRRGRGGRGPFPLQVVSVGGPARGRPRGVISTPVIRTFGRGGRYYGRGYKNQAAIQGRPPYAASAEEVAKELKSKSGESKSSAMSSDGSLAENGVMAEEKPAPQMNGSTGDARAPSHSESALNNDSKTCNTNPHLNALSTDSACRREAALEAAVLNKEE
UniProt P10768: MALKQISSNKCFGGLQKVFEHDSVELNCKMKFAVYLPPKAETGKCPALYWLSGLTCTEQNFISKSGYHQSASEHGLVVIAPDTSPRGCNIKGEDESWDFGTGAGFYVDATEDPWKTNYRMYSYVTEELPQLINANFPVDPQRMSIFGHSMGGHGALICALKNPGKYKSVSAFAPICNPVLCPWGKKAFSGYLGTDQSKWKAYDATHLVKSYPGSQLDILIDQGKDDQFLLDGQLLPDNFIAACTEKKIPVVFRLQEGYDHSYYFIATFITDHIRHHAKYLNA
UniProt Q8IUD2: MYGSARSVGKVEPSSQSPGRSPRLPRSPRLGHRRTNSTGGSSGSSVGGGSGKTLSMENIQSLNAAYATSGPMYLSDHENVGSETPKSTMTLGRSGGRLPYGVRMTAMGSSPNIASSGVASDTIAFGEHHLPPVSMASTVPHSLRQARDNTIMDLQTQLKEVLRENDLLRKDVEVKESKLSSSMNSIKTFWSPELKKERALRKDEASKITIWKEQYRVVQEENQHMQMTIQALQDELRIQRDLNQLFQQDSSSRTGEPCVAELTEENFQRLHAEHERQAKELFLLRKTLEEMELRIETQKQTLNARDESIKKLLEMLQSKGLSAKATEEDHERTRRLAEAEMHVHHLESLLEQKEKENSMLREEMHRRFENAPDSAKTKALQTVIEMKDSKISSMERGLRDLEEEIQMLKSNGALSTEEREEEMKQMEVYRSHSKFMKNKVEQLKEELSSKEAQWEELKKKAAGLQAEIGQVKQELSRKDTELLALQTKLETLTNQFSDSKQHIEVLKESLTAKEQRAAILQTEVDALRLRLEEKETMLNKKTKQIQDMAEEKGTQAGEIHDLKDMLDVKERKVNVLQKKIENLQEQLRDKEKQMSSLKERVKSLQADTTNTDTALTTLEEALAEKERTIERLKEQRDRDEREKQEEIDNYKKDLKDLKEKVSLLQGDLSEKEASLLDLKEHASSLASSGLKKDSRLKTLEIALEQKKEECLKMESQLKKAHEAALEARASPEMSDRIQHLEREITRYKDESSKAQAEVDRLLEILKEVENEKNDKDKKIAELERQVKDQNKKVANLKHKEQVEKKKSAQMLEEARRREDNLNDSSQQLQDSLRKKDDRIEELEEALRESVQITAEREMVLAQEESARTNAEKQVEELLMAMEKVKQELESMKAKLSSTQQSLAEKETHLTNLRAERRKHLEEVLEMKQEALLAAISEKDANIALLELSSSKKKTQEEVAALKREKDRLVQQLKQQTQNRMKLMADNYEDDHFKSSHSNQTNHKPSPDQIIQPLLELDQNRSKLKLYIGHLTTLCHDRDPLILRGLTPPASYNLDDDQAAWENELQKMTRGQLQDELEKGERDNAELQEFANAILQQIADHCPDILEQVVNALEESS
UniProt Q01780: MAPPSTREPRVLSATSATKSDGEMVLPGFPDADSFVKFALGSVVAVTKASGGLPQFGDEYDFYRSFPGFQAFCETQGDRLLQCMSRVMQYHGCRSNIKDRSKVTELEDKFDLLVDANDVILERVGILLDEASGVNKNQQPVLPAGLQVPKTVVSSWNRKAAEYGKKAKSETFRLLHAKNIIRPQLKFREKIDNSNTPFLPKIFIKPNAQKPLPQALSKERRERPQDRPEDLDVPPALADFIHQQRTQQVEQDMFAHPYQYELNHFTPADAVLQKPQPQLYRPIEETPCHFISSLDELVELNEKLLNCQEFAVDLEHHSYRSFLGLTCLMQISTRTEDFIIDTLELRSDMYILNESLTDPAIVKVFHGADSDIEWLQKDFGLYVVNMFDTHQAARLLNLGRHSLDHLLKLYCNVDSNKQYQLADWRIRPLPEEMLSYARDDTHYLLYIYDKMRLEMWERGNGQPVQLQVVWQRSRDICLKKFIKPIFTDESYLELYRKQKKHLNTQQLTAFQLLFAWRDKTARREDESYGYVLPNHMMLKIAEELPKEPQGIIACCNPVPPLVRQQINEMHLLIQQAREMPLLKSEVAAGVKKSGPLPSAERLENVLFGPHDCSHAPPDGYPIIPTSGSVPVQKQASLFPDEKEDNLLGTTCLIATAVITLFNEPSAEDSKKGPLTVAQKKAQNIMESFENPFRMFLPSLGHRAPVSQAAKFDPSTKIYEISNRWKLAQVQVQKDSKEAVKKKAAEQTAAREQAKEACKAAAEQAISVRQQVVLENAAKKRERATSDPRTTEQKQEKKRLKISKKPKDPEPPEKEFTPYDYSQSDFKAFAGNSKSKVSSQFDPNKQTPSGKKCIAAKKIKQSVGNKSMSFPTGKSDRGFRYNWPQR
UniProt Q8TBG4: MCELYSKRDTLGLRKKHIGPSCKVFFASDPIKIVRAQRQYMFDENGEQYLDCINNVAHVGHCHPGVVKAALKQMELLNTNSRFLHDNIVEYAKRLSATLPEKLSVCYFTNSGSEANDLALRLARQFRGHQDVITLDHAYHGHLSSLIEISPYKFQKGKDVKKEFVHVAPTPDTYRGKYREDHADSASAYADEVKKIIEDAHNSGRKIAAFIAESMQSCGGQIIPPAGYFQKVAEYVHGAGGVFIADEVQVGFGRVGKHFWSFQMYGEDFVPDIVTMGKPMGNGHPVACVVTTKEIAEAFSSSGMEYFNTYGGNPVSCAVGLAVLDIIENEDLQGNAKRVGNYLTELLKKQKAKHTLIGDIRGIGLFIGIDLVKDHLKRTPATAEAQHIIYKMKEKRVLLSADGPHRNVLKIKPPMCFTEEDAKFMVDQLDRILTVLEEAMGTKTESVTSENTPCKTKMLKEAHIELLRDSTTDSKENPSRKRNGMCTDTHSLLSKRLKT
UniProt Q13158: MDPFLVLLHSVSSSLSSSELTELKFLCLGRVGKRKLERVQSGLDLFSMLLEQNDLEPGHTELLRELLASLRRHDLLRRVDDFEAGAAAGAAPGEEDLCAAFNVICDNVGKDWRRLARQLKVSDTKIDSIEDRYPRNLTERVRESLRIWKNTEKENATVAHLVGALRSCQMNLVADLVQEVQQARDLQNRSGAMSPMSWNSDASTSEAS
UniProt O94905: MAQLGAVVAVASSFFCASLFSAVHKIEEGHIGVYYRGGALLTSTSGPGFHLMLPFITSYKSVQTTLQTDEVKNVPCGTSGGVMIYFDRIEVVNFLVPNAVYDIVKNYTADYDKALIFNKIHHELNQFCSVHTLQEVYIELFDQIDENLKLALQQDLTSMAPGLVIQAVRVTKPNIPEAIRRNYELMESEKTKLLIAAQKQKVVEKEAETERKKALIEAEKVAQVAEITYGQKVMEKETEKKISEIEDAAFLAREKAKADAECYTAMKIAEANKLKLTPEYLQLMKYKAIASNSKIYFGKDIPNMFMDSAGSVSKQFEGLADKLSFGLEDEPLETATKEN
UniProt Q9BS26: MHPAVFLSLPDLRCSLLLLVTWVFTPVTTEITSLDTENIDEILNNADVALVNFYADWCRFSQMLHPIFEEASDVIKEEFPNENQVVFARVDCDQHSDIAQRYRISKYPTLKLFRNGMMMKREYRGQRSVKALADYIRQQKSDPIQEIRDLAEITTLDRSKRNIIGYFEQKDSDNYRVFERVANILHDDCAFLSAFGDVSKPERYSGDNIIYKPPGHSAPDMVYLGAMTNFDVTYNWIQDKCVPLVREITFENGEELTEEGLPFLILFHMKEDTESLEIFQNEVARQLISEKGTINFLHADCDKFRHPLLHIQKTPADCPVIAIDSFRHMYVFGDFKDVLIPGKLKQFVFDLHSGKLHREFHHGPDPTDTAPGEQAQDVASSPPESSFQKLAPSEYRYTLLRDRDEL
UniProt Q9Y282: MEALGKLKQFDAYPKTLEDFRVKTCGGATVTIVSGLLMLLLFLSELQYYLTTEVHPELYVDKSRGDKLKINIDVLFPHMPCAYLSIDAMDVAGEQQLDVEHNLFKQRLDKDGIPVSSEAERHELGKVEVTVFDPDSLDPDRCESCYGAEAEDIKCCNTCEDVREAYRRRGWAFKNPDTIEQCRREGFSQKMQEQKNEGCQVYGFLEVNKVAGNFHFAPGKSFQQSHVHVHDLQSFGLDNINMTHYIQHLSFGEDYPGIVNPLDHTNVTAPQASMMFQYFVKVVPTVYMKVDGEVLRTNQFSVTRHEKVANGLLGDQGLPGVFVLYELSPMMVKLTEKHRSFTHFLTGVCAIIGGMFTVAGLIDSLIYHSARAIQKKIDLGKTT
UniProt Q93063: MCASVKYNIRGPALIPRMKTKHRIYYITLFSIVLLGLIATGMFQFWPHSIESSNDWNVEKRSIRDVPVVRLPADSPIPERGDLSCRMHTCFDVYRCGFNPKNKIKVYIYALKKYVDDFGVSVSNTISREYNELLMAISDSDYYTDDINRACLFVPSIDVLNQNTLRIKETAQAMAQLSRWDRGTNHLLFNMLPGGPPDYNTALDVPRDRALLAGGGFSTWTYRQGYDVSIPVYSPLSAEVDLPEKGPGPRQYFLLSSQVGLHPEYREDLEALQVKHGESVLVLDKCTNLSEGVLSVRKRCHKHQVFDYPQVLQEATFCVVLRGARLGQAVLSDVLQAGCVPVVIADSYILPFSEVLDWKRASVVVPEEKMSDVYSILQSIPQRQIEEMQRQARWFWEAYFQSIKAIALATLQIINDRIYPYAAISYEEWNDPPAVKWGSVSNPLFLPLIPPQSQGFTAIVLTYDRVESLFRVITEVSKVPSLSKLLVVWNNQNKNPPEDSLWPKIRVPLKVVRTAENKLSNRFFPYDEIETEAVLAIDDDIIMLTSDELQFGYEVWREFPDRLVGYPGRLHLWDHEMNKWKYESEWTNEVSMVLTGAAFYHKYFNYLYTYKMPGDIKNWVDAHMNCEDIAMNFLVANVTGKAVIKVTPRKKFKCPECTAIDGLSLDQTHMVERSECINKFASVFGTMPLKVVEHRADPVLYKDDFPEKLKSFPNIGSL
UniProt Q96DF8: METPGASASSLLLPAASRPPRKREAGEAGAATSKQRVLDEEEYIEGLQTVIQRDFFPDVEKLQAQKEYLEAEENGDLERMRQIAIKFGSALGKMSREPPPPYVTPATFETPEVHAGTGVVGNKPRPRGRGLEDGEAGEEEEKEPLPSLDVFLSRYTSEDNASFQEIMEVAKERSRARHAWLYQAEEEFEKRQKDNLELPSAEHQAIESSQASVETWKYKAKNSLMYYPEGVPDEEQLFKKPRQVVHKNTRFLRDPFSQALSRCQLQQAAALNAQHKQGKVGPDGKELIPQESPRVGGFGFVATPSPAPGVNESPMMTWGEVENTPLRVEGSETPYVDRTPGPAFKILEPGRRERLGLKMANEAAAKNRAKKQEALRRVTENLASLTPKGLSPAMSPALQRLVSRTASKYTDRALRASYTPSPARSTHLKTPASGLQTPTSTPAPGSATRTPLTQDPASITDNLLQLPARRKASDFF

Key:
Assay in all cases: log2 fold change, soluble protein after heating vs DMSO (PISA); higher = thermal stabilisation; K562 cells, 10 uM, 30 min; active = over 0.2 and 3.5 SD of the protein, either way, in both replicates (recomputed)
erlotinib = compound: C#Cc1cccc(Nc2ncnc3cc(OCCOC)c(OCCOC)cc23)c1 [erlotinib]
Summary of the method: (§1)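 Soluble protein was defined as the supernatant after 21,000xg for 90 min. It came from K562 cells at 2×10^6 cells/mL given 10 μM compound for 30 min, heated in aliquots for 3 min across 48°C-58°C, pooled, and extracted in PBS with 0.5% NP-40 at 4°C, and was quantified by TMTpro 16plex LC-MS/MS with equalised channel sums. Thermal stability against control samples, from duplicates, is reported as log2 fold change.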

[1] = compound: C/C(=N\NC(=O)C1=CC(=CC=C1)S(=O)(=O)N2CCOCC2)/C3=C(C=CC(=C3)Cl)O
Summary of the method: as §1

[2] = compound: C1=CC(=C(C=C1Cl)C2=NC3=NC=CN=C3C(=N2)NC4=CC=NC=C4)F
Summary of the method: as §1

[3] = compound: C1=CC(=CC=C1C2=NC3=C(N2)C=C(C=C3)C(=O)N)OC4=CC=C(C=C4)Cl
Summary of the method: as §1

[4] = compound: C1=CC2=C(C=CC(=C2)/C=C\3/C(=O)NC(=NCC4=CC=CS4)S3)N=C1
Summary of the method: as §1

[5] = compound: C1=CC2=NC=CN=C2C=C1/C=C/3\C(=O)NC(=O)S3
Summary of the method: as §1

[6] = compound: C1=CC=C(C=C1)C2=NC(=C(N2)C3=CC=NC=C3)C4=CC(=C(C=C4)Cl)O
Summary of the method: as §1

[7] = compound: C1=CC=C2C(=C1)C3=NNC4=CC=CC(=C43)C2=O
Summary of the method: as §1

[8] = compound: C1CCN(C1)C(=O)NC2=CC=CC(=C2)NC3=NC=C(C(=N3)NCCC4=CN=CN4)Br
Summary of the method: as §1

[9] = compound: C1CN(CCC1(CC2=CC=C(C=C2)Cl)N)C3=NC=NC4=C3C=CN4
Summary of the method: as §1

| Target | log2 fold change (erlotinib) | log2 fold change [1] | log2 fold change [2] | log2 fold change [3] | log2 fold change [4] | log2 fold change [5] | log2 fold change [6] | log2 fold change [7] | log2 fold change [8] | log2 fold change [9] |
| --- | --- | --- | --- | --- | --- | --- | --- | --- | --- | --- |
| FAM120A isoform 6 (UniProt Q9NZB2) | inactive: -0.152 | inactive: -0.143 | inactive: -0.236 | inactive: 0.069 | inactive: -0.065 | inactive: 0.011 | inactive: -0.068 | inactive: -0.06 | inactive: 0.102 | inactive: -0.05 |
| ESD (UniProt P10768) | inactive: -0.02 | inactive: -0.027 | inactive: 0.011 | inactive: 0.011 | inactive: -0.02 | inactive: 0.008 | inactive: -0.026 | inactive: -0.033 | inactive: -0.008 | inactive: 0.012 |
| ERC1 (UniProt Q8IUD2) | inactive: 0.035 | inactive: 0.07 | inactive: 0.003 | inactive: 0.03 | inactive: 0.211 | inactive: -0.064 | inactive: 0.038 | inactive: 0.003 | inactive: -0.058 | inactive: 0.063 |
| ETFDH (UniProt Q16134) | inactive: 0.043 | inactive: 0.02 | inactive: 0.027 | inactive: 0.007 | inactive: 0.091 | inactive: 0.005 | inactive: 0.001 | inactive: -0.011 | inactive: 0.017 | inactive: 0.025 |
| EXOSC9 isoform 2 (UniProt Q06265) | inactive: 0.002 | inactive: -0.03 | inactive: 0.025 | inactive: 0.022 | inactive: -0.05 | inactive: 0.059 | inactive: -0.075 | inactive: 0.003 | inactive: -0.036 | inactive: 0.053 |
| EXOSC3 (UniProt Q9NQT5) | inactive: 0.012 | inactive: 0.033 | inactive: -0.028 | inactive: 0.013 | inactive: -0.007 | inactive: 0.009 | inactive: -0.03 | inactive: -0.047 | inactive: 0.008 | inactive: 0.022 |
| EXOSC10 (UniProt Q01780) | inactive: 1.07 | active: -0.86 | inactive: 0.136 | inactive: 0.008 | inactive: 0.078 | inactive: -0.101 | inactive: -0.444 | inactive: -0.055 | inactive: 0.052 | inactive: 0.067 |
| EXOSC2 (UniProt Q13868) | inactive: 0.025 | inactive: -0.005 | inactive: -0.004 | inactive: 0.013 | inactive: 0.029 | inactive: -0.005 | inactive: -0.022 | inactive: -0.001 | inactive: -0.061 | inactive: 0.032 |
| EPHX2 (UniProt P34913) | inactive: -0.01 | inactive: 0.213 | inactive: -0.008 | inactive: 0.2 | inactive: 0.09 | inactive: -0.004 | inactive: 0.038 | inactive: -0.032 | inactive: 0.123 | inactive: -0.001 |
| ERBIN isoform 8 (UniProt Q96RT1) | inactive: 0.068 | inactive: 0.052 | inactive: 0.009 | inactive: 0.051 | inactive: -0.031 | inactive: 0.023 | inactive: 0.118 | inactive: -0.018 | inactive: -0.006 | inactive: 0.02 |
| FADS3 (UniProt Q9Y5Q0) | inactive: 0.03 | inactive: -0.005 | inactive: 0.104 | inactive: 0.017 | inactive: 0.064 | inactive: 0.058 | inactive: 0.04 | inactive: 0.001 | inactive: -0.055 | inactive: 0.05 |
| ETNPPL (UniProt Q8TBG4) | inactive: -0.225 | inactive: 0.019 | inactive: 0.052 | inactive: 0.104 | inactive: 0.106 | inactive: -0.013 | inactive: -0.133 | inactive: -0.186 | inactive: 0.09 | inactive: 0.111 |
| ERGIC2 (UniProt Q96RQ1) | inactive: 0.033 | inactive: 0.076 | inactive: 0.011 | inactive: 0.04 | inactive: 0.082 | inactive: 0.028 | inactive: 0.003 | inactive: -0.037 | inactive: 0.037 | inactive: 0.064 |
| FAAP100 (UniProt Q0VG06) | inactive: 0.003 | inactive: 0.019 | inactive: 0.246 | inactive: 0.037 | inactive: 0.052 | inactive: 0.17 | inactive: -0.024 | inactive: 0.023 | inactive: -0.122 | inactive: 0.004 |
| FADD (UniProt Q13158) | inactive: 0.086 | inactive: 0.018 | inactive: 0.048 | inactive: -0.063 | inactive: 0.08 | inactive: 0.079 | inactive: -0.008 | inactive: 0.07 | inactive: 0.034 | inactive: 0.011 |
| ESYT1 isoform 2 (UniProt Q9BSJ8) | inactive: 0.039 | inactive: 0.081 | inactive: -0.016 | inactive: -0.05 | inactive: 0.035 | inactive: -0.069 | inactive: -0.042 | inactive: 0.043 | inactive: -0.11 | inactive: -0.092 |
| EZR (UniProt P15311) | inactive: -0.042 | inactive: 0.058 | inactive: 0.035 | inactive: -0.023 | inactive: 0.004 | inactive: 0.015 | inactive: 0.02 | inactive: 0.022 | inactive: -0.003 | inactive: -0.022 |
| ERLIN1 (UniProt O75477) | inactive: -0.081 | inactive: 0.013 | inactive: -0.097 | inactive: -0.001 | inactive: -0.015 | inactive: -0.011 | inactive: -0.006 | inactive: -0.047 | inactive: 0.008 | inactive: -0.124 |
| ERLIN2 (UniProt O94905) | inactive: -0.073 | inactive: -0.075 | inactive: -0.054 | inactive: -0.014 | inactive: -0.012 | inactive: 0.027 | inactive: 0.021 | inactive: -0.054 | inactive: -0.002 | inactive: -0.097 |
| EXOSC6 (UniProt Q5RKV6) | inactive: 0.025 | inactive: 0.023 | inactive: 0.017 | inactive: 0.008 | inactive: -0.055 | inactive: 0.036 | inactive: -0.021 | inactive: -0.006 | inactive: -0.057 | inactive: 0.033 |
| ERP44 (UniProt Q9BS26) | inactive: -0.046 | inactive: -0.032 | inactive: 0.022 | inactive: 0.001 | inactive: -0.011 | inactive: 0.01 | inactive: -0.012 | inactive: 0.007 | inactive: 0.024 | inactive: -0.005 |
| ERGIC3 isoform 3 (UniProt Q9Y282) | inactive: 0.009 | inactive: 0.072 | inactive: 0.049 | inactive: 0.011 | inactive: -0.057 | inactive: 0.015 | inactive: 0.012 | inactive: -0.042 | inactive: -0.001 | inactive: 0.071 |
| ETFA (UniProt P13804) | inactive: 0.029 | inactive: 0 | inactive: 0.076 | inactive: 0.004 | inactive: 0.031 | inactive: 0.005 | inactive: 0.035 | inactive: 0.015 | inactive: 0.015 | inactive: 0.034 |
| EXT2 isoform 3 (UniProt Q93063) | inactive: -0.018 | inactive: 0.049 | inactive: -0.1 | inactive: 0.035 | inactive: -0.021 | inactive: 0 | inactive: -0.039 | inactive: -0.024 | inactive: -0.001 | inactive: -0.013 |
| ESS2 (UniProt Q96DF8) | inactive: -0.057 | inactive: -0.05 | inactive: -0.013 | inactive: 0.046 | inactive: -0.083 | inactive: 0.04 | inactive: -0.055 | inactive: -0.071 | inactive: -0.008 | inactive: 0.096 |

Rewritten as tab-separated lines: part of the list above.
Target	log2 fold change (erlotinib)	log2 fold change [1]	log2 fold change [2]	log2 fold change [3]	log2 fold change [4]	log2 fold change [5]	log2 fold change [6]	log2 fold change [7]	log2 fold change [8]	log2 fold change [9]
EXOSC3 (UniProt Q9NQT5)	inactive: 0.012	inactive: 0.033	inactive: -0.028	inactive: 0.013	inactive: -0.007	inactive: 0.009	inactive: -0.03	inactive: -0.047	inactive: 0.008	inactive: 0.022
FAAP100 (UniProt Q0VG06)	inactive: 0.003	inactive: 0.019	inactive: 0.246	inactive: 0.037	inactive: 0.052	inactive: 0.17	inactive: -0.024	inactive: 0.023	inactive: -0.122	inactive: 0.004
ESYT1 isoform 2 (UniProt Q9BSJ8)	inactive: 0.039	inactive: 0.081	inactive: -0.016	inactive: -0.05	inactive: 0.035	inactive: -0.069	inactive: -0.042	inactive: 0.043	inactive: -0.11	inactive: -0.092
EZR (UniProt P15311)	inactive: -0.042	inactive: 0.058	inactive: 0.035	inactive: -0.023	inactive: 0.004	inactive: 0.015	inactive: 0.02	inactive: 0.022	inactive: -0.003	inactive: -0.022
ERLIN2 (UniProt O94905)	inactive: -0.073	inactive: -0.075	inactive: -0.054	inactive: -0.014	inactive: -0.012	inactive: 0.027	inactive: 0.021	inactive: -0.054	inactive: -0.002	inactive: -0.097
ESS2 (UniProt Q96DF8)	inactive: -0.057	inactive: -0.05	inactive: -0.013	inactive: 0.046	inactive: -0.083	inactive: 0.04	inactive: -0.055	inactive: -0.071	inactive: -0.008	inactive: 0.096
